The exact form of at least one protein or probe is not confirmed. At least one result comes from cells or an extract, where the contact may be indirect. At least one verdict was read from the data and is not stated in words by the source.
Key:
[1] = target: PTK7 (protein tyrosine kinase 7) on Jurkat cells (UniProt Q13308); assay: flow cytometry on cells; conditions: Binding buffer: DPBS with CaCl2 and MgCl2, 4.5 g/L glucose, 5 mM MgCl2, 5 mg/mL HtDNA, 1 mg/mL BSA, 30 min on ice, about 5e5 cells in 200 uL, fit Y = Bmax X/(Kd + X), protein on the cell surface, label: 3' FAM, single-stranded DNA
[2] = target: Met (hepatocyte growth factor receptor) on MDA-MB-231 cells (UniProt P08581); assay: flow cytometry on cells; conditions: MDA-MB-231 cells, value only in figure, Binding buffer: DPBS with CaCl2 and MgCl2, 4.5 g/L glucose, 5 mM MgCl2, 5 mg/mL HtDNA, 1 mg/mL BSA, 30 min on ice, about 5e5 cells in 200 uL, fit Y = Bmax X/(Kd + X), protein on the cell surface, label: 3' FAM, single-stranded DNA
[3] = Jurkat cells, Kd not significantly changed vs free Sgc8, value only in figure, 5' azide coupled to DBCO-streptavidin carrying bpM6P

Amino acid sequences for entries named in this document (tags omitted). Residues count along the entry.
UniProt Q13308, 31-1070: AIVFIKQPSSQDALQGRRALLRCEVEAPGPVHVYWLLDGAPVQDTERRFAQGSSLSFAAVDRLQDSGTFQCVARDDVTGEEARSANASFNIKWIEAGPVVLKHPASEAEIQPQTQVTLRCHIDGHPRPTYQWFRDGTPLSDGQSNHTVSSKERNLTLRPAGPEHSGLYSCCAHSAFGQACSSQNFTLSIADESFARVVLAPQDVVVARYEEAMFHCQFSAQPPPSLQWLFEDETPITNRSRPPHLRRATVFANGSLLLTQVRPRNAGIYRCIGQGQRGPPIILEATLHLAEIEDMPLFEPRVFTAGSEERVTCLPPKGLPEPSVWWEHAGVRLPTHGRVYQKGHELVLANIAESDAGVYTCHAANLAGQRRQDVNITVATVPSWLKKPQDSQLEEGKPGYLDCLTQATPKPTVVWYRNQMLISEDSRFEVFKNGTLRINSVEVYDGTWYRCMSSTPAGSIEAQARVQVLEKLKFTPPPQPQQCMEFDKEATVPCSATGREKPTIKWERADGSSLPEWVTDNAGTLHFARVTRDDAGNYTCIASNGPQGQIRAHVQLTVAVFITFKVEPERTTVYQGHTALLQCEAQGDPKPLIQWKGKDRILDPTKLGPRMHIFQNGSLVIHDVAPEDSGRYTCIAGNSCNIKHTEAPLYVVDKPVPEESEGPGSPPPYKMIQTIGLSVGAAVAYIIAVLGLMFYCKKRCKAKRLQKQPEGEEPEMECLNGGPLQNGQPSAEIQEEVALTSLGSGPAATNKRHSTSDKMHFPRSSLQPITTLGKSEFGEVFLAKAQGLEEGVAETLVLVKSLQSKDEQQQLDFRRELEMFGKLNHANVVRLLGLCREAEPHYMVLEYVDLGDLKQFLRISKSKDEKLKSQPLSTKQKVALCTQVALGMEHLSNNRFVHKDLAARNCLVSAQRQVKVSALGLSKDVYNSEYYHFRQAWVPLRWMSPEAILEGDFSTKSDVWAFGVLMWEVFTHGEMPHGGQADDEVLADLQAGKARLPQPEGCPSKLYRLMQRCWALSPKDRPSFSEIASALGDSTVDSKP
UniProt P08581, 25-1390: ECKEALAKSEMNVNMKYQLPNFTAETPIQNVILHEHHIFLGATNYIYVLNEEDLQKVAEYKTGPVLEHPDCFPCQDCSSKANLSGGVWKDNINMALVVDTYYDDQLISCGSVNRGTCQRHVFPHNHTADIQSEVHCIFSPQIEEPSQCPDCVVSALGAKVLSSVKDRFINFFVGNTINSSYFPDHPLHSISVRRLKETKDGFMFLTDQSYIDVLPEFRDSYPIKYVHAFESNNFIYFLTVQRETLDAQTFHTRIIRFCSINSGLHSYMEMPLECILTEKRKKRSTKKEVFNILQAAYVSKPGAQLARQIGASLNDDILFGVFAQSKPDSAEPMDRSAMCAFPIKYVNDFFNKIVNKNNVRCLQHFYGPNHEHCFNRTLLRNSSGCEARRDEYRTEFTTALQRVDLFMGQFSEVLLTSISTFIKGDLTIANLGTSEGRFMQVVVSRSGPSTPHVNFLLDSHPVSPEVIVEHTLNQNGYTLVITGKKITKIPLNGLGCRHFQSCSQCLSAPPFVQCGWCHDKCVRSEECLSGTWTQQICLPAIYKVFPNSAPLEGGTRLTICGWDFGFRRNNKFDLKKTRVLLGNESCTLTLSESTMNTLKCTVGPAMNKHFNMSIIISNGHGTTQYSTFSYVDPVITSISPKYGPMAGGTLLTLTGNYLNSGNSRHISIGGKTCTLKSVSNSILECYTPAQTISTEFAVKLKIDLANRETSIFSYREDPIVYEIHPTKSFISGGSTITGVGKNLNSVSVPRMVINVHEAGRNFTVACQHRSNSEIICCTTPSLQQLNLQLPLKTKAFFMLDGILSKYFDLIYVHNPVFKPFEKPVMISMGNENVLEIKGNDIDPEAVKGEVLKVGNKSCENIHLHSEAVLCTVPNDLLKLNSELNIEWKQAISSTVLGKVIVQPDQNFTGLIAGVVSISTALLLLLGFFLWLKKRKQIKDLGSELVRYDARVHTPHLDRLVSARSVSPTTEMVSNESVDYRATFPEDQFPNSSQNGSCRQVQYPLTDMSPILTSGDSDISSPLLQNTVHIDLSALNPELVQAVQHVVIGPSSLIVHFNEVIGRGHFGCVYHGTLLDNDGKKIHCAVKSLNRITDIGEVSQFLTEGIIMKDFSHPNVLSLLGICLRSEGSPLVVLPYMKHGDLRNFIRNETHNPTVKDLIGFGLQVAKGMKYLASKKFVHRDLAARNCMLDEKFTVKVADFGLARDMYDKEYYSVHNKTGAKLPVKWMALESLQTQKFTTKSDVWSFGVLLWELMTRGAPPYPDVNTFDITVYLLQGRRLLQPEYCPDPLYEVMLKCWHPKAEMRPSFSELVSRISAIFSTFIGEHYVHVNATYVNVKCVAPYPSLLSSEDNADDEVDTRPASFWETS

| Sequence | binding result [1, 3] | other results |
| --- | --- | --- |
| AAAAATCTAACTGCTGCGCCGCCGGGAAAATACTGTACGGTTAGA [FAM-Sgc8-SA (SA:Sgc8 = 1:3)] | – | binding result ([1]; 100 nM, Jurkat vs PTK7-negative Ramos, 5' azide coupled to DBCO-streptavidin, about 3 aptamers per SA): binds |
| AAAAATCTAACTGCTGCGCCGCCGGGAAAATACTGTACGGTTAGA [FAM-Sgc8] | – | binding result ([1]; Jurkat cells, Kd shown only in figure, 5' azide (N3)): binds |
| AAAAATCTAACTGCTGCGCCGCCGGGAAAATACTGTACGGTTAGA [FAM-bpM6P-Sgc8-SA (SA:Sgc8 = 1:1)] | binds | – |
| AAAAATCTAACTGCTGCGCCGCCGGGAAAATACTGTACGGTTAGA [FAM-bpM6P-Sgc8-SA (SA:Sgc8 = 1:3)] | binds | – |
| AAAAATCTAACTGCTGCGCCGCCGGGAAAATACTGTACGGTTAGA [FAM-bpM6P-Sgc8-SA (SA:Sgc8 = 1:5)] | binds | – |
| AAAAATCTAACTGCTGCGCCGCCGGGAAAATACTGTACGGTTAGA [FAM-bpM6P-Sgc8-SA (SA:Sgc8 = 1:7)] | binds | – |
| ATCAGGCTGGATGGTAGCTCGGTCGGGGTGGGTGGGTTGGCAAGTCTGAT [FAM-SL1] | – | binding result ([2]; 5' azide (N3)): binds |
| ATCAGGCTGGATGGTAGCTCGGTCGGGGTGGGTGGGTTGGCAAGTCTGAT [FAM-bpM6P-SL1-SA (SA:SL1 = 1:3)] | – | binding result ([2]; 5' azide coupled to DBCO-streptavidin carrying bpM6P): binds |

Source: article PMC11077639
